The text below walks through data of PubChem BioAssay AID2685 (National Center for Advancing Translational Sciences (NCATS), 2010).

Structures are written as SMILES. This is one part of the list. Shown are side measurements of this screen, not its main read-out; they come without a call. Compounds called inactive in the main read-out are mostly missing here. The note in brackets gives the kind of curve behind each potency; many fits are weak.

A word on the AC50: it is the concentration at which the activity in the assay is half-maximal.

The nature of this experiment: qHTS Assay for Lipid Storage Modulators in Drosophila S3 Cells.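 For cell number change: cells counted by Cell Tracker Red CMTPX staining in the red channel.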 The note with it: BODIPY lipid droplet fluorescence, 18-24 h; for cell number change: measured here: cell count max response, cells fed with added oleic acid. The procedure, abridged: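 Laser-scanning cytometry quantifies lipid droplet accumulation (500–530 nm total intensity; droplet/cell object ratio) in oleic acid-fed (400 uM added) Drosophila S3 cells treated with a concentration series. 20 uM Triacsin C defined 100% inhibition.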
Background: In qHTS, concentration-response curves come from the screen itself.

[1] abbreviates: measured here: lipid fluorescence (Fed channel) AC50, cells fed with added oleic acid.
Setting [2] is: measured here: cell number channel AC50, cells fed with added oleic acid.

With `COc1ccccc1NS(=O)(=O)c1ccc2oc(N)nc2c1`, the cell number change worked out at 6.67%. Moreover, the AC50 under setting [1] is 0.651 µM [rising, partial curve, poor fit].

For `O=C(NNc1ccc([N+](=O)[O-])cc1)Nc1ccccc1`, the cell number change was determined as 2.59%.

Consider `O=c1oc2cc(Br)ccc2n1Cc1ccccc1`, for which the cell number change amounted to 3.41%.

Consider `O=S(=O)(N/N=C1/CC(c2ccccc2)Oc2ccccc21)c1ccc(Br)cc1` (stereo not given), for which the cell number change is -15.2%.

`CCOc1ccccc1Oc1coc2cc(OC(=O)c3ccco3)ccc2c1=O`: the cell number change was -2.23%. Also, the half-maximal activity concentration (AC50) under setting [1] was 0.13 µM [falling, full curve, poor fit].

As to `CC(=O)Nc1ccc(S(=O)(=O)N2CCN(C(=O)c3ncoc3-c3ccc(C)cc3)CC2)cc1`, the cell number change is -3.95%. Further, under setting [1], the half-maximal activity concentration (AC50) was 5.62 µM [rising, single point].

As to `Cc1nc(C)c(-c2ccc(SCc3cccc(F)c3)nn2)s1`, the cell number change was -32.7%. Under setting [2], the concentration at half-maximal activity (AC50) was 9.2 µM [falling, single point].

As to `N#Cc1ccc(C(=O)OCC(=O)Nc2ccc(N3CCOCC3)cc2)cc1`, the cell number change is -53.7%. Besides, under setting [1], the AC50 was 0.82 µM [falling, full curve].

As for `Fc1ccc2c(c1)C(c1cccnc1)=NNC(c1cccs1)=N2`, the cell number change was 22.2%. Under setting [1], the half-maximal activity concentration (AC50) is 1.16 µM [rising, partial curve, poor fit].

Regarding `Cc1cccc(Nc2c([N+](=O)[O-])ccc3nonc23)c1C`, the cell number change is 9.72%.

For `CCc1cc(=O)oc2c(C)c(OC(C)C(=O)NCCCn3ccnc3)ccc12` (stereo not given), the cell number change is -0.895%. Further, the half-maximal activity concentration (AC50) under setting [1] is 23.1 µM [falling, single point].

For the compound `O=C(COc1cc(F)ccc1[N+](=O)[O-])Nc1cccc(Br)c1`, the cell number change came to 60.9%. Further, the half-maximal activity concentration (AC50) under setting [2] is 23.1 µM [rising, single point].

As to `COc1cc(OC)c(C(=O)NNC(=O)CN(C)S(=O)(=O)c2ccc(Cl)cc2)cc1OC`, the concentration at half-maximal activity (AC50) under setting [1] is 2.91 µM [rising, partial curve].

`O=C(CCCNS(=O)(=O)c1ccc(Cl)c(Cl)c1)NCCc1ccccn1`: the cell number change was -48.4%. Also, the AC50 under setting [2] is 4.61 µM [falling, single point]. For the same compound, under setting [1], the concentration at half-maximal activity (AC50) is 25.9 µM [falling, partial curve, poor fit].

Regarding `Cc1ccc(S(=O)(=O)N2CCN(S(=O)(=O)N3CCCCC3)CC2)cc1C`, the cell number change worked out at 25.7%.

For the compound `O=C(COc1cccc2c1CCNC2=O)Nc1cccc(C(F)(F)F)c1`, the AC50 under setting [1] is 0.411 µM [rising, full curve].

In the case of `COc1cccc(S(=O)(=O)NCc2ccc(C(=O)N3CCN(C)CC3)cc2)c1`, the cell number change came to 19.1%. In addition, the half-maximal activity concentration (AC50) under setting [1] is 20.6 µM [falling, single point].

In the case of `COCc1[nH][nH]c(=O)c1C=Nc1ccc(C(F)(F)F)cc1`, the cell number change came to 6.95%. For the same compound, the half-maximal activity concentration (AC50) under setting [1] is 0.82 µM [rising, full curve].

Turning to `Cc1c(OCC(=O)NCCCN2CCOCC2)ccc2c(-c3ccccc3)cc(=O)oc12`, the cell number change was 2.69%. Besides, the concentration at half-maximal activity (AC50) under setting [1] is 0.231 µM [rising, full curve, poor fit].

Turning to `O=C(c1ccccc1F)N1CCN(Cc2ccccc2F)CC1`, the cell number change was 32.8%. For the same compound, the concentration at half-maximal activity (AC50) under setting [2] was 0.00517 µM [rising, full curve, poor fit].

Consider `COC(=O)COc1cccc2c(=O)n(CC(=O)NCCc3ccccc3)ccc12`, for which the cell number change worked out at 13.2%. For the same compound, under setting [1], the half-maximal activity concentration (AC50) is 4.11 µM [rising, partial curve].

Consider `O=c1[nH]c(N/N=C/c2ccccc2Br)nnc1-c1ccccc1`, for which the cell number change turned out to be 71.9%. Moreover, under setting [2], the AC50 was 18.4 µM [rising, partial curve]. Also, the concentration at half-maximal activity (AC50) under setting [1] is 8.2 µM [falling, partial curve].

On to `O=c1c2ccccc2nnn1Cc1nnc(-c2ccccc2Br)o1`, for which the cell number change is 9.7%. In addition, under setting [2], the AC50 is 0.058 µM [rising, full curve, poor fit]. The AC50 under setting [1] is 0.0651 µM [rising, full curve, poor fit].

With `CCCCN(CCCC)C(=O)CSc1nnc(-c2cc(OC)c(OC)c(OC)c2)o1`, the cell number change was -0.835%. In addition, the AC50 under setting [1] was 6.51 µM [rising, single point].

For the compound `Cc1ccc(-c2noc(C3CCCN(C(=O)c4cccc(F)c4)C3)n2)cc1` (stereo not given), the cell number change was -32%. Further, under setting [2], the AC50 is 29.1 µM [falling, single point]. For the same compound, the concentration at half-maximal activity (AC50) under setting [1] is 29.1 µM [falling, single point].

`CCN1CCN(Cc2c(O)ccc3c(C)cc(=O)oc23)CC1`: the cell number change is -20.8%. Besides, the AC50 under setting [2] was 0.082 µM [falling, full curve, poor fit].

In the case of `CN1CCN(S(=O)(=O)c2cccc(C(=O)NCCOc3ccccc3)c2)CC1`, the cell number change amounted to 50%. The AC50 under setting [2] is 16.4 µM [rising, single point].

With `O=c1cc(Cc2ccccc2)[nH]c(=S)[nH]1`, the cell number change is -25.3%. Further, the half-maximal activity concentration (AC50) under setting [1] is 23.1 µM [falling, partial curve, poor fit].

For the compound `O=C(Nc1nnc(COc2ccc(Cl)cc2)s1)C1CCCO1` (stereo not given), under setting [2], the AC50 was 1.84 µM [rising, partial curve, poor fit].

In the case of `C=CCn1c(=NC(=O)c2ccco2)sc2cc(C(=O)OC)ccc21`, the cell number change amounted to 2.68%. Also, the AC50 under setting [1] is 0.411 µM [rising, full curve, poor fit].

On to `Cc1csc(SCC(=O)N(C)CC(=O)Nc2ccc(F)cc2)n1`, for which the cell number change came to 20.9%.

With `CCN(c1ccc(C(=O)CSc2nnc(C3CC3)n2C2CC2)cc1)S(C)(=O)=O`, the cell number change was -12.7%.

For `O=S(=O)(c1ccc(OCC2CO2)cc1)c1ccc(OCC2CO2)cc1` (stereo not given), the cell number change is -32.7%. Moreover, under setting [2], the AC50 is 8.2 µM [falling, partial curve]. Also, the concentration at half-maximal activity (AC50) under setting [1] is 10.3 µM [falling, partial curve].

As for `CC(=O)Nc1ccc(NC(=O)c2ccccc2-n2cnnn2)cc1`, the cell number change was 0.5%.

For `O=C(Cc1ccccc1F)Nc1nc(-c2cccnc2)cs1`, the cell number change was 7.08%.

Regarding `CN1CCN(CCCNC(=O)c2ccc3c(c2)N(Cc2ccc(F)cc2)CCS3)CC1`, the cell number change stood at 31.2%. Moreover, the concentration at half-maximal activity (AC50) under setting [2] is 0.082 µM [rising, full curve, poor fit].

`Nc1nc(Nc2ccccc2)nc2ccccc12`: the cell number change worked out at 3.62%. Further, the AC50 under setting [1] is 2.59 µM [rising, partial curve].

For `CCOC(=O)c1c(NC(=O)c2cccc([N+](=O)[O-])c2C(=O)O)sc2c1CCCC2`, the cell number change turned out to be 10.6%. For the same compound, the concentration at half-maximal activity (AC50) under setting [1] is 5.8 µM [rising, single point].

For `Cc1ccc([C@@H]2[C@@H]3C(=O)N(C)C(=O)[C@@H]3[C@]3(Cc4ccccc4)C(=O)N(Cc4ccccc4)CC(=O)N23)o1`, the cell number change came to 31.7%. Moreover, the AC50 under setting [2] was 0.164 µM [rising, full curve, poor fit].

On to `C#CCn1cc(/C=C2\NC(=O)NC2=O)c2ccccc21`, for which the cell number change was 12.5%. Also, the concentration at half-maximal activity (AC50) under setting [2] was 0.103 µM [rising, full curve, poor fit]. Further, the concentration at half-maximal activity (AC50) under setting [1] is 0.58 µM [rising, single point].

Turning to `COC(=O)c1cccc(NC(=O)CSc2nc(C)cc(=O)[nH]2)c1`, the cell number change was -18.4%. For the same compound, the AC50 under setting [1] was 10.3 µM [rising, partial curve, poor fit].

For `CCCC(C(=O)N(C)CC(=O)Nc1ccc(N2CCOCC2)cc1)c1ccccc1` (stereo not given), the cell number change came out at 4.41%. The concentration at half-maximal activity (AC50) under setting [1] is 0.651 µM [rising, full curve].

Consider `O=C(NCc1ccco1)c1ccc(Cn2c(=O)c3sccc3n(Cc3cccc(F)c3)c2=O)cc1`, for which, under setting [1], the concentration at half-maximal activity (AC50) is 0.00517 µM [rising, full curve, poor fit].

Consider `CC(C)CC(c1nnnn1Cc1ccco1)N1CCN(C2CCCC2)CC1` (stereo not given), for which the cell number change is -10.9%. In addition, the AC50 under setting [1] is 0.146 µM [falling, full curve, poor fit].

Consider `CC(C)CCN(C(=O)c1csnn1)C(C(=O)NC1CCCCC1)c1ccc(F)cc1` (stereo not given), for which the cell number change was found to be 1.28%.

On to `CN(C(=O)CN1C(=O)NC2(CCc3ccccc32)C1=O)C1CCS(=O)(=O)C1` (stereo not given), for which the cell number change was determined as 18.5%. Under setting [1], the concentration at half-maximal activity (AC50) is 32.6 µM [rising, single point].

Turning to `CCC(=O)NNC(=O)CCC(=O)Nc1cccc(Cl)c1C`, the cell number change is -31%. Further, the AC50 under setting [2] is 0.116 µM [falling, full curve]. The concentration at half-maximal activity (AC50) under setting [1] was 23.1 µM [falling, single point].

Turning to `Cn1c(=O)[nH]c(=O)c2c1nc(N1CCCC1)n2CCO`, the cell number change turned out to be 5.82%. Under setting [1], the AC50 is 23.1 µM [falling, single point].

For `O=C(N/N=C1\CCCc2oc(C(=O)O)cc21)c1ccccc1`, the cell number change was 2.99%. Besides, the concentration at half-maximal activity (AC50) under setting [1] was 0.411 µM [rising, partial curve, poor fit].

As to `O=C(O)c1cc(-c2ccc3c(c2)OCO3)nc2ccccc12`, the cell number change was determined as 1.44%. The AC50 under setting [2] was 0.411 µM [rising, full curve].

Turning to `O=c1c2ccccc2nc(SCc2nnc(-c3ccccc3)o2)n1-c1ccccc1`, the cell number change is -2.38%.

For `O=C1C([N+](=O)[O-])=C(O)c2cccc3cccc1c23`, the cell number change is -70.9%. Besides, the half-maximal activity concentration (AC50) under setting [2] was 20.6 µM [falling, partial curve]. In addition, the half-maximal activity concentration (AC50) under setting [1] was 14.6 µM [falling, partial curve].

For `CCOC(=O)c1cc2c(ccn2C)n1CC(=O)N(Cc1ccccc1)c1ccccc1`, the cell number change was -43.9%. For the same compound, the half-maximal activity concentration (AC50) under setting [2] is 7.31 µM [falling, partial curve]. Moreover, the AC50 under setting [1] was 5.8 µM [falling, partial curve].

As to `Cc1ccc(Nc2c(-c3ccc(N4CCOCC4)cc3)nc3cnccn23)cc1`, the AC50 under setting [2] was 0.92 µM [rising, full curve, poor fit] and the AC50 under setting [1] was 0.82 µM [rising, partial curve, poor fit].

For the compound `COc1ccc2c(c1)C(=O)[C@@H](OC(=O)NCc1ccc3c(c1)OCO3)[C@H](c1ccc(OC)c(Br)c1)O2`, the cell number change came to 9.9%. The AC50 under setting [1] was 0.651 µM [rising, full curve].

Take `N/C(=N\OC(=O)/C=C/c1ccccc1Cl)c1cccnc1`: the cell number change was 15.5%. Besides, under setting [2], the concentration at half-maximal activity (AC50) is 6.51 µM [rising, single point].

Consider `Cc1cccnc1NC(=O)Nc1cccs1`, for which the cell number change is 54.5%. The AC50 under setting [2] was 20.6 µM [rising, partial curve, poor fit]. In addition, the AC50 under setting [1] is 6.51 µM [rising, single point].

Turning to `O=C(CN1CCOCC1)Nc1ccccc1NC(=O)C1CCN(c2ncccn2)CC1`, the cell number change turned out to be 30.3%. The concentration at half-maximal activity (AC50) under setting [2] is 20.6 µM [rising, single point]. Moreover, the AC50 under setting [1] was 0.731 µM [falling, full curve, poor fit].

With `CCCCc1nc2cc(C(=O)N3CCC(OC)CC3)ccc2o1`, the cell number change was 8.96%. Further, under setting [1], the concentration at half-maximal activity (AC50) was 20.6 µM [falling, single point].

With `Cc1ccc(C(=O)CSc2nnc(CNc3ccc(C)cc3C)o2)cc1`, the concentration at half-maximal activity (AC50) under setting [1] is 6.51 µM [rising, single point].
